These are yes or no findings as the source states them, for the method shown. Binding calls can cover weak binding; strength is not graded here. Values belong to the binder of their own block, whether it stands above or below them.
Biological target: macaca CCR8 (macaca)
Test: flow cytometry on HEK293T cells transiently expressing macaca CCR8

- binding: binds
B1: VHH-64 (VHH)
VHH: EVQLVESGGGLVQPGGSLRLSCAVSGGIRSIIPAGWYRQVPGKQRELVAAISTAGSADYADSVKGRFTISRDNTKNTAYLQMNSLRPEDTAVYYCNGRQTGWRTRVDYWGQGTLVTVSS
notes: Monovalent VHH purified from E. coli periplasm with C-terminal FLAG3 and His6 tags; not shown: C-terminal FLAG3 and His6 tags

- binding: binds
B2: VHH-57 (VHH)
VHH: EVQLVESGGGLVQPGGSLRLSCTASGNIFSLLDMKWYRQAPGKQRELVADITSGGSTNYADPVKGRFTISRDNAKNTVYLQMNSLRPEDTAVYYCNAAPYYWGAYRRQESWGQGTLVTVSS
notes: as for B1

- binding: binds
B3: VHH-67 (VHH)
VHH: EVQLVESGGGLVQPGGSLRLSCTVSGSIFSLRTVGWYRQAPGKQRELVATISAGGATDYADSVKVRFTVSRDNGKNTVYLQMNSLRPEDTAVYYCYAQDSYKIYKSRYTQDYWGQGTLVTVSS
notes: as for B1
